# Assay results: patent CN114409782A
# Where a chain is given by its changes, count along the chain named. No constants are given. Whether binding was seen depends on the method and setting. Some binding calls cover weakened binding; strength is not graded here. Tags and fused reporters may be left off the sequences shown.
# B1: 抗IL13Ra2纳米抗体VHH-1 (VHH-mIgG2a Fc) (Fc fusion, not shown: a dimerising Fc or GST)
# chain: QVQLVESGGGLVQPGGSLRLSCAASGFTLDYYAIAWFRQAPGKRREGVSCISSSEGSTNYADSVKGRFTISRDNAKNTVYLQMNSLKPEDTAVYYCAADSTGRCWARPLYEYDYRGQGTQVTVSS
# B2: 抗IL13Ra2纳米抗体VHH-7 (VHH-mIgG2a Fc) (Fc fusion, not shown: a dimerising Fc or GST)
# chain: QVQLVESGGGLAHPGGRLRVTCTASGANLKNYAVGWFRQRPGKQREEVACLRVRYANTNKAPSVRERVHVFREENNNLVYMLMSDLTPEDTGIYYCAARPQQPSADCSLLANDYDNWGQGIQVTVSE
# B3: 抗IL13Ra2纳米抗体VHH-8 (VHH-mIgG2a Fc) (Fc fusion, not shown: a dimerising Fc or GST)
# chain: B1 chain with E55G, D62N
# B4: 抗IL13Ra2纳米抗体VHH-13 (VHH-mIgG2a Fc) (Fc fusion, not shown: a dimerising Fc or GST)
# chain: B1 chain with L11S, P14A, A23T, A24S, G26R
# B5: 抗IL13Ra2纳米抗体VHH-16 (VHH-mIgG2a Fc) (Fc fusion, not shown: a dimerising Fc or GST)
# chain: B2 chain with Q39R, T58S, N75K, L110S
# Biological target: T1, IL13Ra2 on the cell surface (UniProt Q14627)
# T1 sequence (looked up): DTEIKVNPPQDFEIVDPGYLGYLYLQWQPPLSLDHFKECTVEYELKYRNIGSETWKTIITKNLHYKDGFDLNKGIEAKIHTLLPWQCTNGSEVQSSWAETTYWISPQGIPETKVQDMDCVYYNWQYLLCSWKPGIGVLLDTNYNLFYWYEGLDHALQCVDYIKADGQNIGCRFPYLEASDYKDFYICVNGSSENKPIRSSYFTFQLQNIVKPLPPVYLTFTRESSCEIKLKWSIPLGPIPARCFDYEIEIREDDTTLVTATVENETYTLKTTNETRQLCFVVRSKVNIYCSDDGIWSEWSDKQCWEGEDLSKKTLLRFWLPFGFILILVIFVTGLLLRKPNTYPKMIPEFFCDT
# Assay: flow cytometry on cells, APC goat anti-mouse IgG detection
row,Binder,binding
1,B1,binds
2,B2,binds
3,B3,binds
4,B4,binds
5,B5,binds
